Measurements published in patent US9279812B2, “Neuregulin-1-based prognosis and therapeutic stratification of colorectal cancer” (UNIVERSITEIT GENT, priority 2011, dated 2016).
For at least one compound, name, drawing or mass did not settle the structure.

System: HCT-8/E11 cells
Test: Single cell collagen invasion assay, HCT-8/E11
Assay type: cell-based, human
Conditions: 10 μM, 24 hours; concentration not inhibiting basal invasion
Protocol: Collagen invasion assays were performed as described previously (45). Briefly, 1×10^5 CRC cells were seeded on type I collagen-coated 6-well plates and treated with CM derived from 5×10^5 BM-MSC or T-MC supplemented with DMEM 10% FBS and antibiotics as indicated.
Morphology and invasion into collagen was analysed after 24 hours and quantified by means of the factor shape ([perimeter]^2/[4πarea]) and invasion index. The number of invasive and noninvasive cells was counted in 10 randomly selected microscopic fields with a 20× objective and 10× eye piece by two blinded observers using an inverted phase-contrast microscope (DMI 3000B; Leica, Wetzlar, Germany). The invasion index was calculated as the ratio of the number of cells that invaded the gel divided by the total number of cells counted in each field. Collagen matrices were fixed in 3% paraformaldehyde for 10 minutes and phalloidin-TRITC (Sigma-Aldrich) staining as described (45). Cells were imaged with a Zeiss 510 META confocal laser-scanning microscope (Carl Zeiss, Micro-imaging Inc., Heidelberg, Germany) using a 488 argon and a 543 HeNe laser. Images were acquired using a Plan Apochromat 63×/1.4 oil DIC or a Plan Apochromat 100×/1.4 oil DIC objective. All the images shown are collapsed z-stacks.

Row | Compound | CM^BM-MSC-induced invasion
1 | O=c1cc(N2CCOCC2)oc2c(-c3ccccc3)cccc12 [LY294002] | able to block
2 | COC[C@H]1OC(=O)c2coc3c2[C@@]1(C)C1=C(C3=O)[C@@H]2CCC(=O)[C@@]2(C)C[C@H]1OC(C)=O [wortmannin] | able to block
